Laboratory results as given in the supplement of paper PMC12823440, “Inhibitors supercharge kinase turnover through native proteolytic circuits” (Nature, 2025).
This is one part of the list. The calls rarely recur for the same compound in another form.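 Kinases, fused to nanoluciferase, were expressed in K562 cells; luminescence was measured every 4 h from 2 to 18 h as percent of control (DMSO = 100%, positive control = 0%). A time point is decreased if signal falls significantly (2 sigma). Hits were called by the authors by a rule that is not shown; the count of time points alone does not decide it.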

Amino acid sequences for entries named in this document (tags omitted). A change or cut given only in a name is not applied to a line headed by its entry.
UniProt Q9BUB5: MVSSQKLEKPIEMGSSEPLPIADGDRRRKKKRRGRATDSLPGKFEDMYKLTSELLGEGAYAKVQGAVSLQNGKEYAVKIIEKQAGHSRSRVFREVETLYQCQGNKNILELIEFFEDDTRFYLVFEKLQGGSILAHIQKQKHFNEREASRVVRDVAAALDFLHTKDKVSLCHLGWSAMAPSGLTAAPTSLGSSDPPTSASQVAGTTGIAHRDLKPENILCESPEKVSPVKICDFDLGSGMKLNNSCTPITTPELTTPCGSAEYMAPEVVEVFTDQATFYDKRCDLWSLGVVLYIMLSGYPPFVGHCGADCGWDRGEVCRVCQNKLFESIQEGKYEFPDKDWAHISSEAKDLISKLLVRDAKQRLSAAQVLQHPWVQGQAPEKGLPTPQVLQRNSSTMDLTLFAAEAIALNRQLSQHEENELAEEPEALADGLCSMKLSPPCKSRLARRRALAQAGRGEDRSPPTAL
UniProt Q9Y616: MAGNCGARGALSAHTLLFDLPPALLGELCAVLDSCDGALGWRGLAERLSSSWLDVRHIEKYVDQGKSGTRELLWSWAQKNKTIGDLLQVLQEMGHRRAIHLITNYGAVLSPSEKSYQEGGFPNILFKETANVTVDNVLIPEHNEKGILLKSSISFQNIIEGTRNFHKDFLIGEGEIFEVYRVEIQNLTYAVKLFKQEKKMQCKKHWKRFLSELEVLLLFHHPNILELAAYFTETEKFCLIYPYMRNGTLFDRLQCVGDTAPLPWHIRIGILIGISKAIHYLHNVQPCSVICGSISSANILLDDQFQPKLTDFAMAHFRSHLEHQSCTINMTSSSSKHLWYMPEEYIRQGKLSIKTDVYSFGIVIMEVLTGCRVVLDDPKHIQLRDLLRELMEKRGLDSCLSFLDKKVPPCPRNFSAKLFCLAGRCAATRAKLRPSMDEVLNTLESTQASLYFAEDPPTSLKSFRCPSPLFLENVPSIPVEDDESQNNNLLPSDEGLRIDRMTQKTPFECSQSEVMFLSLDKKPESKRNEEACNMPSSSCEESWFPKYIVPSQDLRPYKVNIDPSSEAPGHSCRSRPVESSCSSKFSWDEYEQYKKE
UniProt P43403: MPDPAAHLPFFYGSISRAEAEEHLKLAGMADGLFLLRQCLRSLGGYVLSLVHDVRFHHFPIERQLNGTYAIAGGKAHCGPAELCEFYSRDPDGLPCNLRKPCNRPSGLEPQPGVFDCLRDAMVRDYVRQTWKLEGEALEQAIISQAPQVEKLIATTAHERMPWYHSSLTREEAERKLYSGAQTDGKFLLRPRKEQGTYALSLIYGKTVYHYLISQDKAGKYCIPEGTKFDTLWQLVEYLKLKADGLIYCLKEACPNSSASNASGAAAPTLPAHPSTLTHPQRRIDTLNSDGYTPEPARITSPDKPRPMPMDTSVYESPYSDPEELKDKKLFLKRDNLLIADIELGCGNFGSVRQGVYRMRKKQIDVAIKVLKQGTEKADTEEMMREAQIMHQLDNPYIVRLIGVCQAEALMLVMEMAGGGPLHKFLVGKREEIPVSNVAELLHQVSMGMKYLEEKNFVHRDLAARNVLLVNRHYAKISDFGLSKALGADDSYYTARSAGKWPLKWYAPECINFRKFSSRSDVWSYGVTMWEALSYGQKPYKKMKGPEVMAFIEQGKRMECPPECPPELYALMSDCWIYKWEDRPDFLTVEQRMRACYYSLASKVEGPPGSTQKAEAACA
UniProt Q8IWU2: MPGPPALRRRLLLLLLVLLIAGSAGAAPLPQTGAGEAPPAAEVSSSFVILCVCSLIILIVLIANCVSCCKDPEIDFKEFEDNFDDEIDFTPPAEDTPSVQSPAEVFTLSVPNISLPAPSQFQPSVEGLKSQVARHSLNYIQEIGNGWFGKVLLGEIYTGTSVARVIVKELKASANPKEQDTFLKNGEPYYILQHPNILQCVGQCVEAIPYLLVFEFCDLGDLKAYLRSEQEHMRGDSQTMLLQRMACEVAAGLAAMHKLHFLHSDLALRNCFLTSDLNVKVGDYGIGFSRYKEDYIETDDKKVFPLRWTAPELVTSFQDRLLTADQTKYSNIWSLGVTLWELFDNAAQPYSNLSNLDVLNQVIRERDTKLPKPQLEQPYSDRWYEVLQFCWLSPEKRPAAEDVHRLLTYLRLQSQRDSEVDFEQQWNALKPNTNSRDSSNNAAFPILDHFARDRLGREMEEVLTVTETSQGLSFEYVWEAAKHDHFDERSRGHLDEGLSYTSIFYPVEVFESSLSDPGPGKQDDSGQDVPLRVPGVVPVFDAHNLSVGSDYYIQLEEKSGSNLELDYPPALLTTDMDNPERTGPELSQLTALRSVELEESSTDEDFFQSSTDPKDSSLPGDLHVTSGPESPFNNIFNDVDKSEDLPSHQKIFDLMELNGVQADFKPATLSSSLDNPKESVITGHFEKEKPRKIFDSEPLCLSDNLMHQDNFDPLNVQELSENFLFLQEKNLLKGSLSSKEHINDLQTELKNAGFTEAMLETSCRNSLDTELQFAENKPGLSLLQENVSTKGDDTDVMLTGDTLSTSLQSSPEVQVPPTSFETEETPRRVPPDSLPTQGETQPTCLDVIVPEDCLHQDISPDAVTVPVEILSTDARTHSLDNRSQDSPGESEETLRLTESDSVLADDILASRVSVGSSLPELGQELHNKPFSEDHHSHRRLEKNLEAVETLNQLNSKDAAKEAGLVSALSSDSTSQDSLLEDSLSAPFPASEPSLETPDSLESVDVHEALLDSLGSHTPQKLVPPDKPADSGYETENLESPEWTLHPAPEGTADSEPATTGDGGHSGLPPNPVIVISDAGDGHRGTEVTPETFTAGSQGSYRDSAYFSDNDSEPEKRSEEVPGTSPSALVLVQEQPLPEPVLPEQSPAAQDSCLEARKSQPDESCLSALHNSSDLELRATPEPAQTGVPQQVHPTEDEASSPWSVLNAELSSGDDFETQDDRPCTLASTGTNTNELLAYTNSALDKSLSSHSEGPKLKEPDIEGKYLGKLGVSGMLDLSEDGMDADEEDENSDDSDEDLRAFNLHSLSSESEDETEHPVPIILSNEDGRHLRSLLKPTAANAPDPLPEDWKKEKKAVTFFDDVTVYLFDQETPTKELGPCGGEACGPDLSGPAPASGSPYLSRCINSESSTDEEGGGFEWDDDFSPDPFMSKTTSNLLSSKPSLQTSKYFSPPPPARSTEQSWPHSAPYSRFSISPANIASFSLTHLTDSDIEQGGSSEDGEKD
UniProt P41240: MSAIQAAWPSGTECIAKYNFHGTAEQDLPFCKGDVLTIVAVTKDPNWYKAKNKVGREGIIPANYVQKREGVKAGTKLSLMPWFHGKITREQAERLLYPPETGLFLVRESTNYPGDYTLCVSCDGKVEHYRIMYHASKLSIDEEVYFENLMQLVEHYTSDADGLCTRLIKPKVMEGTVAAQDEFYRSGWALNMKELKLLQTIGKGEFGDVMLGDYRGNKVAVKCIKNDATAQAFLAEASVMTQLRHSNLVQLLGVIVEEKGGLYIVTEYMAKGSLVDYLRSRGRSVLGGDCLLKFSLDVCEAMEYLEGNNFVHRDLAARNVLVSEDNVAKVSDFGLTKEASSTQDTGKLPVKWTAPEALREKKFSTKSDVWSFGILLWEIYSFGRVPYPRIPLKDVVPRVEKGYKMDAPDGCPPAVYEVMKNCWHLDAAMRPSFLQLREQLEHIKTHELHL

Tests used:
Test in all cases: number of time points (of 5) at which kinase-Nluc abundance scored as decreased, DMSO-normalised (count); higher = more persistent destabilization
[1] = compound: C#Cc1cccc(Nc2ncnc3cc(OCCOC)c(OCCO)cc23)c1 [Desmethyl Erlotinib (hydrochloride)]; conditions: 10 µM; K562; 2-18 h
Desmethyl Erlotinib = compound: C#Cc1cccc(Nc2ncnc3cc(OCCOC)c(OCCO)cc23)c1 [Desmethyl Erlotinib]; conditions: 10 µM; K562; 2-18 h
[2] = compound: C#Cc1cccc(Nc2ncnc3cc(OCCOC)c(OCCOC)cc23)c1 [Erlotinib (Hydrochloride)]; conditions: 10 µM; K562; 2-18 h
Erlotinib = compound: C#Cc1cccc(Nc2ncnc3cc(OCCOC)c(OCCOC)cc23)c1 [Erlotinib]; conditions: 10 µM; K562; 2-18 h
Icotinib (Hydrochloride) = compound: C#Cc1cccc(Nc2ncnc3cc4c(cc23)OCCOCCOCCO4)c1 [Icotinib (Hydrochloride)]; conditions: 10 µM; K562; 2-18 h
Icotinib = compound: C#Cc1cccc(Nc2ncnc3cc4c(cc23)OCCOCCOCCO4)c1 [Icotinib]; conditions: 10 µM; K562; 2-18 h
(Z)-Guggulsterone = compound: C/C=C1\C(=O)C[C@H]2[C@@H]3CCC4=CC(=O)CC[C@]4(C)[C@H]3CC[C@]12C [(Z)-Guggulsterone]; conditions: 10 µM; K562; 2-18 h
Guggulsterone = compound: C/C=C1\C(=O)C[C@H]2[C@@H]3CCC4=CC(=O)CC[C@]4(C)[C@H]3CC[C@]12C [Guggulsterone]; conditions: 10 µM; K562; 2-18 h
[3] = compound: C=CC(=O)N1CCN(c2ncnc3c(F)c(-c4c(O)cccc4F)c(Cl)cc23)CC1; conditions: K562, 2-18 h
Mobocertinib (succinate) = compound: C=CC(=O)Nc1cc(Nc2ncc(C(=O)OC(C)C)c(-c3cn(C)c4ccccc34)n2)c(OC)cc1N(C)CCN(C)C [Mobocertinib (succinate)]; conditions: 10 µM; K562; 2-18 h
Mobocertinib = compound: C=CC(=O)Nc1cc(Nc2ncc(C(=O)OC(C)C)c(-c3cn(C)c4ccccc34)n2)c(OC)cc1N(C)CCN(C)C [Mobocertinib]; conditions: 10 µM; K562; 2-18 h
Osimertinib (dimesylate) = compound: C=CC(=O)Nc1cc(Nc2nccc(-c3cn(C)c4ccccc34)n2)c(OC)cc1N(C)CCN(C)C [Osimertinib (dimesylate)]; conditions: 2.5 µM; K562; 2-18 h
Osimertinib mesylate = compound: C=CC(=O)Nc1cc(Nc2nccc(-c3cn(C)c4ccccc34)n2)c(OC)cc1N(C)CCN(C)C [Osimertinib mesylate]; conditions: 2.5 µM; K562; 2-18 h
Osimertinib = compound: C=CC(=O)Nc1cc(Nc2nccc(-c3cn(C)c4ccccc34)n2)c(OC)cc1N(C)CCN(C)C [Osimertinib]; conditions: 2.5 µM; K562; 2-18 h
[4] = compound: C=CC(=O)Nc1cc(Nc2nccc(-c3cn(C4CC4)c4ccccc34)n2)c(OC)cc1N(C)CCN(C)C [Almonertinib (hydrochloride)]; conditions: 2.5 µM; K562; 2-18 h
Almonertinib = compound: C=CC(=O)Nc1cc(Nc2nccc(-c3cn(C4CC4)c4ccccc34)n2)c(OC)cc1N(C)CCN(C)C [Almonertinib]; conditions: 2.5 µM; K562; 2-18 h
AV-412 (free base) = compound: C=CC(=O)Nc1cc2c(Nc3ccc(F)c(Cl)c3)ncnc2cc1C#CC(C)(C)N1CCN(C)CC1 [AV-412 (free base)]; conditions: 2.5 µM; K562; 2-18 h
[5] = compound: C=CC(=O)Nc1cc2c(Nc3ccc(F)c(Cl)c3)ncnc2cc1C#CC(C)(C)N1CCN(C)CC1; conditions: 2.5 µM; K562; 2-18 h
[6] = compound: CC(=O)N[C@H](Cc1ccc(O)cc1)C(=O)N[C@H](CCCN=C(N)N)C(=O)N[C@H](Cc1ccccc1)C(N)=O; conditions: 10 µM; K562; 2-18 h
[7] = compound: CC(=O)Nc1cccc(-n2c(=O)n(C3CC3)c(=O)c3c(Nc4ccc(I)cc4F)n(C)c(=O)c(C)c32)c1 [Trametinib (DMSO solvate)]; conditions: 10 µM; K562; 2-18 h

Row | Target | number of time points [1] | number of time points (Desmethyl Erlotinib) | number of time points [2] | number of time points (Erlotinib) | number of time points (Icotinib (Hydrochloride)) | number of time points (Icotinib) | number of time points ((Z)-Guggulsterone) | number of time points (Guggulsterone) | number of time points ([3]; 2.5 µM) | number of time points ([3]; 10 µM) | number of time points (Mobocertinib (succinate)) | number of time points (Mobocertinib) | number of time points (Osimertinib (dimesylate)) | number of time points (Osimertinib mesylate) | number of time points (Osimertinib) | number of time points [4] | number of time points (Almonertinib) | number of time points (AV-412 (free base)) | number of time points [5] | number of time points [6] | number of time points [7]
1 | MKNK1 (UniProt Q9BUB5) | 0 | 0 | 0 | 0 | 0 | 0 | 0 | 0 | 0 | 0 | 0 | 0 | 0 | 0 | 0 | 0 | 0 | 0 | 0 | 0 | 0
2 | IRAK3 (UniProt Q9Y616) | 0 | 0 | 0 | 0 | 0 | 0 | 0 | 0 | 0 | 0 | 0 | 0 | 0 | 0 | 0 | 0 | 0 | 0 | 0 | 0 | 0
3 | ZAP70 (UniProt P43403) | 0 | 0 | 0 | 0 | 0 | 0 | 0 | 0 | 0 | 0 | 0 | 0 | 0 | 0 | 0 | 0 | 0 | 0 | 0 | 0 | 0
4 | CDK2 (UniProt P24941) | 0 | 0 | 0 | 0 | 0 | 0 | 0 | 0 | 0 | 0 | 0 | 0 | 0 | 0 | 0 | 0 | 0 | 0 | 0 | 0 | 0
5 | LMTK2 (UniProt Q8IWU2) | 0 | 0 | 0 | 0 | 0 | 2 | 0 | 0 | 0 | 0 | 0 | 0 | 0 | 0 | 0 | 0 | 0 | 1 | 0 | 0 | 0
6 | FGR (UniProt P09769) | 0 | 0 | 0 | 0 | 0 | 0 | 0 | 0 | 0 | 0 | 0 | 0 | 0 | 0 | 0 | 0 | 0 | 0 | 0 | 0 | 0
7 | CSK (UniProt P41240) | 0 | 0 | 0 | 0 | 0 | 0 | 0 | 0 | 0 | 0 | 0 | 0 | 0 | 0 | 0 | 0 | 0 | 0 | 0 | 0 | 0
